From patent US10613105
These are yes or no findings as the source states them, for the method shown. Some results given as binding are weak or reduced against the parent protein; the word gives no strength.

Chains of the proteins cited; added tags and fusions are not shown. Lines headed by an entry give the natural chain unless they say otherwise; changes in a name come on top. Residues count along the entry.
UniProt O00206, residues 24-631: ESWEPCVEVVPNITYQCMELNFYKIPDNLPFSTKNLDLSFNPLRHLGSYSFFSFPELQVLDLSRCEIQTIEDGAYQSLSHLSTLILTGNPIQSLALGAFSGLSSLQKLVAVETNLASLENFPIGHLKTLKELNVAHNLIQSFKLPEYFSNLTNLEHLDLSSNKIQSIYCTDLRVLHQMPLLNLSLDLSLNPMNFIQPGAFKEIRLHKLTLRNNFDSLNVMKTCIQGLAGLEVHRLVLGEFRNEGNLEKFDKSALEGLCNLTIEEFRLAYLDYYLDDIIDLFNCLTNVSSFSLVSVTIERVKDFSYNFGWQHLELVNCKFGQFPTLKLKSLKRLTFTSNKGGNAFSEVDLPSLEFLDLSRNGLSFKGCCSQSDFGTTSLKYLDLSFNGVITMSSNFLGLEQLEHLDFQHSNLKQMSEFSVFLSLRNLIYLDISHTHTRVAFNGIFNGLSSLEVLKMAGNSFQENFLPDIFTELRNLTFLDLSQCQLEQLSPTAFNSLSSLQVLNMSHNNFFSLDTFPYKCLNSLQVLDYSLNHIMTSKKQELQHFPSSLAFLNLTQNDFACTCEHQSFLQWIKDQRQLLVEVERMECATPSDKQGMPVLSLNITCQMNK

How the values were obtained:
[1] = molecular target: TLR4/CD284 from baculovirus insect cells, Hölzel Diagnostik GmbH, 10146-H08B-100 (UniProt O00206); assay: fluorescence photometry of Ni-NTA magnetic agarose beads loaded with his-tagged TLR4; the bound peptide is displaced in the 2nd incubation by Alexa Fluor 488-labeled LPS
[2] = molecular target: TLR4/CD284 from baculovirus insect cells, Hölzel Diagnostik GmbH, 10146-H08B-100 (UniProt O00206); assay: fluorescence microscopy of Ni-NTA magnetic agarose beads carrying his-tagged TLR4
[3] = molecular target: TLR4/CD284 from baculovirus insect cells, Hölzel Diagnostik GmbH, 10146-H08B-100 (UniProt O00206); assay: fluorescence on Ni-NTA magnetic agarose beads carrying his-tagged TLR4

Measured: binding

GLLHIFYIPRRDLKQLYFNL (TAMRA label (position not given)) [TAMRA-labeled … peptide]
binds: all assays above
